Source: paper PMC5499540
No constants are given. Whether binding was seen depends on the method and setting. Some entries that bind do so weakly or less than the wild type.

Sequences of proteins named here, by UniProt entry; tags and fusion partners are left off. A change or cut given only in a name is not applied to a line headed by its entry. Residues count along the entry.
UniProt Q05471: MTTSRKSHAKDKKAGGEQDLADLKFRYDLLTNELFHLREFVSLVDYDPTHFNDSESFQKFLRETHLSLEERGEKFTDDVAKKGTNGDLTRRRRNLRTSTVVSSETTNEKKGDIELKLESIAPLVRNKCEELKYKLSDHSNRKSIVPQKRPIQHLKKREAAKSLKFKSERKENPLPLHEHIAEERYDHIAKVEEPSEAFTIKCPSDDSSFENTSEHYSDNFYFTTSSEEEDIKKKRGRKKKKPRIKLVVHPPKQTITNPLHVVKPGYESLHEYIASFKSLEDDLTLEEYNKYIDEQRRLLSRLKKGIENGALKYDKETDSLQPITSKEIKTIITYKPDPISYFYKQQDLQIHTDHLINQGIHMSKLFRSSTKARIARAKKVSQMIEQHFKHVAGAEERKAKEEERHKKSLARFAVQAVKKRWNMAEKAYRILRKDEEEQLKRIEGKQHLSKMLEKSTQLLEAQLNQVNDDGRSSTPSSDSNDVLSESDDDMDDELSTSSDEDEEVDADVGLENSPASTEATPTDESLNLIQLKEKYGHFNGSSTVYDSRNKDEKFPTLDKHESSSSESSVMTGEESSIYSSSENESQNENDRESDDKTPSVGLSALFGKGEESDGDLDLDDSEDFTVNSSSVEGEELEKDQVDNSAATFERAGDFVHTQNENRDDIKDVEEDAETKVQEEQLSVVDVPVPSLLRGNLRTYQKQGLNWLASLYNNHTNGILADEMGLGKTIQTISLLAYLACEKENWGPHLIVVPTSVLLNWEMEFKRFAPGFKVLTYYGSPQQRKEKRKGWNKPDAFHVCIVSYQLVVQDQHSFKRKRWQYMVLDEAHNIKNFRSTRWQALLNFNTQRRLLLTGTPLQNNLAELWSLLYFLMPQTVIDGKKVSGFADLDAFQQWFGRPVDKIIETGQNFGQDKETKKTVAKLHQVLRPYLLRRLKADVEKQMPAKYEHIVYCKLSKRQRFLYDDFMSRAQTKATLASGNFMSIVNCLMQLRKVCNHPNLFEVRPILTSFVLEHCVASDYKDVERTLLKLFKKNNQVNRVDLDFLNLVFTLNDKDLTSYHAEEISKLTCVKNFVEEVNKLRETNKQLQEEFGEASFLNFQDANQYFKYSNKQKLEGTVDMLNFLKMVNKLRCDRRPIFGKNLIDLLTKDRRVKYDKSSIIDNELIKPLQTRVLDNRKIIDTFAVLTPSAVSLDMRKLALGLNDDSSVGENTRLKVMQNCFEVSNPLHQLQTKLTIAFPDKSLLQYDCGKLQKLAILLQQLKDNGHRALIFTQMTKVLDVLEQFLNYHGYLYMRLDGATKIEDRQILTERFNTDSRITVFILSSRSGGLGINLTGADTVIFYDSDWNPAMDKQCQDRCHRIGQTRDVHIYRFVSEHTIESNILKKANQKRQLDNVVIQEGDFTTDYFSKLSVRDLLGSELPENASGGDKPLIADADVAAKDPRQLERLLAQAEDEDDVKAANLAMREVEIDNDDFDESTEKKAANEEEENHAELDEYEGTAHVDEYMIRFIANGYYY
Swr1 C-terminal truncation to 1359: residues 1-1359 of Q05471
Swr1 N-terminal truncation, first 210 residues removed: residues 211-1514 of Q05471
Swr1 N-terminal truncation, first 264 residues removed: residues 265-1514 of Q05471
Swr1 N-terminal truncation to residue 299: residues 300-1514 of Q05471
Swr1 N-terminal truncation, 339 residues deleted: residues 340-1514 of Q05471
Swr1 N-terminal truncation to residue 369: residues 370-1514 of Q05471
Swr1 N-terminal truncation to residue 409: residues 410-1514 of Q05471
Swr1 N-terminal truncation to residue 459: residues 460-1514 of Q05471
Swr1 N-terminal truncation to residue 662: residues 663-1514 of Q05471
UniProt Q12509: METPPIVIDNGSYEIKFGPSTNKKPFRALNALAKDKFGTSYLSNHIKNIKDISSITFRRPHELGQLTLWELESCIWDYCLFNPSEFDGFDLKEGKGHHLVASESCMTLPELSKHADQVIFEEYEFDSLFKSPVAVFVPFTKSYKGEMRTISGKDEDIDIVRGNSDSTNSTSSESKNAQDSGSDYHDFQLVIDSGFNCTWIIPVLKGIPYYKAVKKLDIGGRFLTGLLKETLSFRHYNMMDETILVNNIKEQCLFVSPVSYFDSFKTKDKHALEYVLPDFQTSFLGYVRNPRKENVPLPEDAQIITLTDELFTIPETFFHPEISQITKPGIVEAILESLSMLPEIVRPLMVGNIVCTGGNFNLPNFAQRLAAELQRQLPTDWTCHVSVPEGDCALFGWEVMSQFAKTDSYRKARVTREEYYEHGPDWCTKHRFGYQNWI
UniProt Q03940: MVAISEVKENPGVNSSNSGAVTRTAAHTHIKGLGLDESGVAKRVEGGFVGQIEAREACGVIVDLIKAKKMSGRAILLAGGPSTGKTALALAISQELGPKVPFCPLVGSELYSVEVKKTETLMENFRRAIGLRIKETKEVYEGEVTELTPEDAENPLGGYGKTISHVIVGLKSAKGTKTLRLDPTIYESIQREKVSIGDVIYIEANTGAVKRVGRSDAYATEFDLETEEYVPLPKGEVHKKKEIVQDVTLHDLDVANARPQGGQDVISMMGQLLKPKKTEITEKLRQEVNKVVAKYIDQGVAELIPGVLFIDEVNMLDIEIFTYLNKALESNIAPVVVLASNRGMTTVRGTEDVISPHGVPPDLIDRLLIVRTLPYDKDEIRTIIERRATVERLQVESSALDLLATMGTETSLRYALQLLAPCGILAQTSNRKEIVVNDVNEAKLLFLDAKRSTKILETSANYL
UniProt Q03388: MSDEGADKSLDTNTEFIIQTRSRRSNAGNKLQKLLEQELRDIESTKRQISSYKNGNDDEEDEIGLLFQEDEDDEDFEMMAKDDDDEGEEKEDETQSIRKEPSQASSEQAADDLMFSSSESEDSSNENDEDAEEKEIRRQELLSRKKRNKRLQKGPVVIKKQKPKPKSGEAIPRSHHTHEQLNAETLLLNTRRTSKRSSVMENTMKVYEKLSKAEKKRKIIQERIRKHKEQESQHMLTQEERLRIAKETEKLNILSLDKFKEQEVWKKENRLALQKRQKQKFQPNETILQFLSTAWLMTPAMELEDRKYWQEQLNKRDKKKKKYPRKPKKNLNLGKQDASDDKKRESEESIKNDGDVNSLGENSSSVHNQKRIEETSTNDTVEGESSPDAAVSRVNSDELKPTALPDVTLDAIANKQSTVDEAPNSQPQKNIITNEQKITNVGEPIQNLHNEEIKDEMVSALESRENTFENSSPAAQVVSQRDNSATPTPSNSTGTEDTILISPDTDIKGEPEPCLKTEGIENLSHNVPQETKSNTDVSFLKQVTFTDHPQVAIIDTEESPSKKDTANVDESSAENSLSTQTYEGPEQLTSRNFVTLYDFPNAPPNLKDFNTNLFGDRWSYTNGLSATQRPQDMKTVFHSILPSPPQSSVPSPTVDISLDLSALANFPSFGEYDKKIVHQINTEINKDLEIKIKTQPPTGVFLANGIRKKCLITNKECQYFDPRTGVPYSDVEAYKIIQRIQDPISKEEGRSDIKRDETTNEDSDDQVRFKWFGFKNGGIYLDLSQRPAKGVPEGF
UniProt Q03433: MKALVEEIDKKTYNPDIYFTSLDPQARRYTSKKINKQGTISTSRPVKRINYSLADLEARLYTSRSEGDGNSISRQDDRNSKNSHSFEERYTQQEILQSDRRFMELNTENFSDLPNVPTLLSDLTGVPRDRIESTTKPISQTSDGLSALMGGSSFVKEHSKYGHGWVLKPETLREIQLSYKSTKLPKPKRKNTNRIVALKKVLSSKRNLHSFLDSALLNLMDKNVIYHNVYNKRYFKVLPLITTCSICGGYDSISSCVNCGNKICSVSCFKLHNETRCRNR
UniProt Q06707: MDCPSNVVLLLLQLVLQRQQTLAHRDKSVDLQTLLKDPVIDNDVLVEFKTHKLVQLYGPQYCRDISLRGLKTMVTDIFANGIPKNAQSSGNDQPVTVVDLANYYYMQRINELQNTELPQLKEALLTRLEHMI

T1: Yaf9 (yeast) (UniProt P53930)
T1 sequence: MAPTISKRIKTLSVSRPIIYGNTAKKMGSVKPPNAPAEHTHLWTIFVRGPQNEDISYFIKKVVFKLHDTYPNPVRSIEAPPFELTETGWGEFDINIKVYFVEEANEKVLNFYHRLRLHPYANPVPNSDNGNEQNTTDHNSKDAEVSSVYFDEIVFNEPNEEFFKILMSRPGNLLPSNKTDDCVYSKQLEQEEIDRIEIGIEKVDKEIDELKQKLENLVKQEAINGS


Assays:
[1] = biological target: Swr1 N-terminal truncation to residue 409 (yeast) (UniProt Q05471); assay: co-purification of co-expressed subunits (StrepTactin affinity, ion exchange, SDS gel); all fourteen genes co-expressed in High Five cells; lysis and wash in 50 mM Tris pH 8.0, 500 mM NaCl; captured by the twin Strep-tag of Swr1 or its variant on StrepTactin HP, then HiTrap Q HP; bands on the SDS gel identified by mass spectrometry
[2] = biological target: Swr1 N-terminal truncation to residue 662 (yeast) (UniProt Q05471); assay: as above
[3] = biological target: Swr1 (residues 1–1514 with an N-terminal 8-histidine and C-terminal twin Strep-tag) (yeast) (UniProt Q05471); assay: as above
[4] = biological target: Swr1 N-terminal truncation to residue 459 (yeast) (UniProt Q05471); assay: as above
[5] = biological target: Swr1 N-terminal truncation, first 264 residues removed (yeast) (UniProt Q05471); assay: as above
[6] = biological target: Swr1 N-terminal truncation to residue 299 (yeast) (UniProt Q05471); assay: as above
[7] = biological target: Swr1 N-terminal truncation to residue 369 (yeast) (UniProt Q05471); assay: as above
[8] = biological target: Swr1 N-terminal truncation, first 210 residues removed (yeast) (UniProt Q05471); assay: as above
[9] = biological target: Swr1 N-terminal truncation, 339 residues deleted (yeast) (UniProt Q05471); assay: as above
[10] = biological target: Swr1 C-terminal truncation to 1359 (yeast) (UniProt Q05471); assay: as above
[11] = biological target: T1, Yaf9 (yeast); assay: co-purification of co-expressed subunits (StrepTactin affinity, ion exchange, SDS gel); as a1, but the Yaf9 gene omitted from the co-expression

Row | Molecule | binding [1] | binding [2] | binding [3] | binding [4] | binding [5] | binding [6] | binding [7] | binding [8] | binding [9] | binding [10] | binding [11]
1 | Arp6 (from UniProt Q12509 1-438) | binds | binds | binds | binds | binds | binds | binds | binds | binds | – | –
2 | Rvb1 (from UniProt Q03940 1-463) | binds | binds | binds | binds | binds | binds | binds | binds | binds | – | –
3 | Swc2 (from UniProt Q03388 1-795) | binds | binds | binds | binds | binds | binds | binds | binds | binds | – | –
4 | Arp4 (protein, UniProt P80428 1-489) MSNAALQVYGGDEVSAVVIDPGSYTTNIGYSGSDFPQSILPSVYGKYTADEGNKKIFSEQSIGIPRKDYELKPIIENGLVIDWDTAQEQWQWALQNELYLNSNSGIPALLTEPVWNSTENRKKSLEVLLEGMQFEACYLAPTSTCVSFAAGRPNCLVVDIGHDTCSVSPIVDGMTLSKSTRRNFIAGKFINHLIKKALEPKEIIPLFAIKQRKPEFIKKTFDYEVDKSLYDYANNRGFFQECKETLCHICPTKTLEETKTELSSTAKRSIESPWNEEIVFDNETRYGFAEELFLPKEDDIPANWPRSNSGVVKTWRNDYVPLKRTKPSGVNKSDKKVTPTEEKEQEAVSKSTSPAANSADTPNETGKRPLEEEKPPKENNELIGLADLVYSSIMSSDVDLRATLAHNVVLTGGTSSIPGLSDRLMTELNKILPSLKFRILTTGHTIERQYQSWLGGSILTSLGTFHQLWVGKKEYEEVGVERLLNDRFR | – | – | binds | – | binds | binds | – | binds | binds | – | –
5 | Swc4 (protein, UniProt P53201 1-476) MSSSDIFDVLNIKQKSRSPTNGQVSVPSSSAANRPKPQVTGMQRELFNLLGENQPPVVIKSGNNFKEKMLSTSKPSPWSFVEFKANNSVTLRHWVKGSKELIGDTPKESPYSKFNQHLSIPSFTKEEYEAFMNENEGTQKSVESEKNHNENFTNEKKDESKNSWSFEEIEYLFNLCKKYDLRWFLIFDRYSYNNSRTLEDLKEKFYYTCRNYFKASDPSNPLLSSLNFSAEKEIERKKYLQRLLSRSAAEIAEEEALVVESKKFEMAAKRTLAERESLLRLLDSPHSDQTITQYLTSQGMSQLYNALLADKTRKRKHDLNIPENPWMKQQQQFAQHRQLQQLNVKKSEVKENLSPKKTKRQRQEMQTALKRKSESAYAEQLLKDFNSDERKALGVITHGEKLSPGVYLRSTKLSTFKPALQNKILAILQELSLPSRPVMPSFDVMERQEELLKKINTLIDLKKHVDKYEAGMSITK | – | – | binds | – | binds | binds | – | binds | – | – | –
6 | Swc3 (protein, UniProt P31376 1-625) MPAVLRTRSKESSIEQKPASRTRTRSRRGKRGRDDDDDDDDEESDDAYDEVGNDYDEYASRAKLATNRPFEIVAGLPASVELPNYNSSLTHPQSIKNSGVLYDSLVSSRRTWVQGEMFELYWRRPKKIVSESTPAATESPTSGTIPLIRDKMQKMCDCVMSGGPHTFKVRLFILKNDKIEQKWQDEQELKKKEKELKRKNDAEAKRLRMEERKRQQMQKKIAKEQKLQLQKENKAKQKLEQEALKLKRKEEMKKLKEQNKNKQGSPSSSMHDPRMIMNLNLMAQEDPKLNTLMETVAKGLANNSQLEEFKKFIEIAKKRSLEENPVNKRPSVTTTRPAPPSKAKDVAEDHRLNSITLVKSSKTAATEPEPKKADDENAEKQQSKEAKTTAESTQVDVKKEEEDVKEKGVKSEDTQKKEDNQVVPKRKRRKNAIKEDKDMQLTAFQQKYVQGAEIILEYLEFTHSRYYLPKKSVVEFLEDTDEIIISWIVIHNSKEIEKFKTKKIKAKLKADQKLNKEDAKPGSDVEKEVSFNPLFEADCPTPLYTPMTMKLSGIHKRFNQIIRNSVSPMEEVVKEMEKILQIGTRLSGYNLWYQLDGYDDEALSESLRFELNEWEHAMRSRRHKR | binds | binds | binds | binds | binds | binds | binds | binds | binds | – | –

The next lines start with the values.

Row | binding [1] | binding [2] | binding [3] | binding [4] | binding [5] | binding [6] | binding [7] | binding [8] | binding [9] | binding [10] | binding [11] | Molecule
7 | binds | binds | binds | binds | binds | binds | binds | binds | binds | binds | – | Swc6 (from UniProt Q03433 1-280)
8 | – | – | binds | – | – | – | – | – | – | – | – | Swc7 (from UniProt Q06707 1-132)
9 | – | – | binds | – | – | – | – | binds | – | – | binds | Bdf1 (protein, UniProt P35817 1-686) MTDITPVQNDVDVNGNNVNDDVSSNLKRPIDQGDPSNGLAEEENPANNQLHLKKARLDGDALTSSPAGLAENGIEGATLAANGENGYNATGSGAEDEQQGLKKEEGGQGTKQEDLDENSKQELPMEVPKEPAPAPPPEPDMNNLPQNPIPKHQQKHALLAIKAVKRLKDARPFLQPVDPVKLDIPFYFNYIKRPMDLSTIERKLNVGAYEVPEQITEDFNLMVNNSIKFNGPNAGISQMARNIQASFEKHMLNMPAKDAPPVIAKGRRSSAQEDAPIVIRRAQTHNGRPKRTIHPPKSKDIYPYESKKPKSKRLQQAMKFCQSVLKELMAKKHASYNYPFLEPVDPVSMNLPTYFDYVKEPMDLGTIAKKLNDWQYQTMEDFERDVRLVFKNCYTFNPDGTIVNMMGHRLEEVFNSKWADRPNLDDYDSDEDSRTQGDYDDYESEYSESDIDETIITNPAIQYLEEQLARMKVELQQLKKQELEKIRKERRLARGSKKRGKRSKGRSGSKNASSKGRRDKKNKLKTVVTYDMKRIITERINDLPTSKLERAIDIIKKSMPNISEDDEVELDLDTLDNHTILTLYNTFFRQYESSSGASNGLDGTSGVTRDASSLSPTSAGSRKRRSKALSQEEQSRQIEKIKNKLAILDSASPLSQNGSPGQIQSAAHNGFSSSSDDDVSSESEEE
10 | – | – | binds | – | binds | binds | – | binds | – | – | – | Yaf9 (protein, UniProt P53930 1-226) MAPTISKRIKTLSVSRPIIYGNTAKKMGSVKPPNAPAEHTHLWTIFVRGPQNEDISYFIKKVVFKLHDTYPNPVRSIEAPPFELTETGWGEFDINIKVYFVEEANEKVLNFYHRLRLHPYANPVPNSDNGNEQNTTDHNSKDAEVSSVYFDEIVFNEPNEEFFKILMSRPGNLLPSNKTDDCVYSKQLEQEEIDRIEIGIEKVDKEIDELKQKLENLVKQEAINGS
